Laboratory results published in paper PMC7819943, “Rice protein-binding microarrays: a tool to detect cis-acting elements near promoter regions in rice”.
This is one part of the list.

Amino acid sequences for entries named in this document (tags omitted).
UniProt Q0JBA9, entry or part of it: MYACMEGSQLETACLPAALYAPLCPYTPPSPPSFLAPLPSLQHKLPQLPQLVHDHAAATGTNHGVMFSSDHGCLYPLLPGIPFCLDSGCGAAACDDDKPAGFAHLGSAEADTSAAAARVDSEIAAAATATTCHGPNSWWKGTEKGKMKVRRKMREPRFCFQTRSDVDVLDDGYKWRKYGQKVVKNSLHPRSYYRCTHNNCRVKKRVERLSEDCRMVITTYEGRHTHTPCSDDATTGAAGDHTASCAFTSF

The sequences below were run against OsWRKY34 (Oryza sativa, UniProt Q0JBA9 1-250) (assay: protein-binding microarray (RPBM); PBS, 2% BSA, 51.3 ng/ul salmon testes DNA, 50 uM zinc acetate, 200 nM TF, 25 C, 1 h; high values mean tight binding). Conditions: protein: recombinant; tags: N-terminal polyhistidine and DsRed monomer fusion (pET32a); label: CyDye5-dUTP incorporated in the synthesized complementary strand; 3' TTTTT single-stranded linker to array surface; dsDNA, one strand shown.
Outline: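 Binding signal here means per-feature fluorescence intensity in arbitrary units. The values were read on an Axon 4000B scanner after a custom Agilent array, double-stranded by primer extension with Cy5-dUTP, was incubated with 200 nM protein at 25 °C for 1 h in PBS with 2% BSA, salmon testes DNA and 50 µM zinc acetate, then washed. The proteins were transcription factors with an N-terminal polyhistidine tag and DsRed, expressed in E. coli BL21-CodonPlus and purified on Ni–NTA.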

Row | Sequence | binding signal
1 | GAAAGCATCCCCAGCCGTTCATCGCCCATCCGAGGTAGAACGGAGTCACCTAGTGCAG | 9070 fluorescence intensity (a.u.)
2 | TTCCAAAGCATGCACTTTTCATCATTATCCCATCTCATAACGGAGTCACCTAGTGCAG | 9480 fluorescence intensity (a.u.)
3 | CAATTTGGAGCCCTTTTTTTATTGCATGCAACTCTGCAGTCGGAGTCACCTAGTGCAG | 8360 fluorescence intensity (a.u.)
4 | TACCTCCGCGCGCGCCTTGTGTTCGACCCACGTCAACCCACGGAGTCACCTAGTGCAG | 10300 fluorescence intensity (a.u.)
5 | GTCCAAAGTGCGAATCGCTCTTTATTTTTCTACCGTCACCCGGAGTCACCTAGTGCAG | 8430 fluorescence intensity (a.u.)
6 | TCAGTTCTGTTGGTCTTCTTTTTCTCTCCGGTGGGGATAGCGGAGTCACCTAGTGCAG | 8280 fluorescence intensity (a.u.)
7 | ATCCTCTCCCGCACCAGCTATAAACCGCCACACGCCCTCGCGGAGTCACCTAGTGCAG | 8650 fluorescence intensity (a.u.)
8 | CACGTTGTGAGCGCCTGTGTTTGTACTATATTTCTCAAAACGGAGTCACCTAGTGCAG | 8260 fluorescence intensity (a.u.)
9 | AGAATTACACGGTACAACACAGACACTCACAACGCATGCACGGAGTCACCTAGTGCAG | 8510 fluorescence intensity (a.u.)
10 | TATATATATATATATATATATATATCGAAGCAAATTCCCACGGAGTCACCTAGTGCAG | 9930 fluorescence intensity (a.u.)
11 | TTTCCGTTAGTTTTTATTAGCACGTTTTTCAAACTACAAACGGAGTCACCTAGTGCAG | 8840 fluorescence intensity (a.u.)
12 | TTGCTGAATCCAACATCGACCTCGCGTTTCTGTCTTTTTCCGGAGTCACCTAGTGCAG | 9960 fluorescence intensity (a.u.)
13 | TGTTATGTGATCATGGTTTTATTGAGTGAATTTCACTTTACGGAGTCACCTAGTGCAG | 8250 fluorescence intensity (a.u.)
14 | CCGATTTCACCTGGTTGCTTGCTTCTGCTGCCATGCCATCCGGAGTCACCTAGTGCAG | 10100 fluorescence intensity (a.u.)
15 | GTGGAAGCACCAAAACTTATTTTTCTTCAAACGGTACATACGGAGTCACCTAGTGCAG | 8090 fluorescence intensity (a.u.)
16 | AATGTCTTACCTCTTCTCTCTTTCGATGCCAAGAATGCAGCGGAGTCACCTAGTGCAG | 9830 fluorescence intensity (a.u.)
17 | TTCAACTCTGGTCTGCAGTATCATCACTGTTAATTCCTTCCGGAGTCACCTAGTGCAG | 10200 fluorescence intensity (a.u.)
18 | TCTTTAAAACCCATCACCATGTCCTAATAACACTTCCATGCGGAGTCACCTAGTGCAG | 8120 fluorescence intensity (a.u.)
19 | TAGAGGGAGGGGACTGAGCAGGTGGTCGAATCAGGGGAGCCGGAGTCACCTAGTGCAG | 8180 fluorescence intensity (a.u.)
20 | CTCTCTTTCATCCAATTCCTGTGTTTTCCCCGCGGTTTAACGGAGTCACCTAGTGCAG | 11200 fluorescence intensity (a.u.)
21 | GCTATCTCTGTAGACTGTAGTTATTCCCATTCACATTTTCCGGAGTCACCTAGTGCAG | 8140 fluorescence intensity (a.u.)
22 | TATTACGACACTTTCAGTCAGTTGTCTGAATTTTTGTTCCCGGAGTCACCTAGTGCAG | 9500 fluorescence intensity (a.u.)
23 | TCCCAGCCACACACACGCGCACCCACACACGCATTCACATCGGAGTCACCTAGTGCAG | 9920 fluorescence intensity (a.u.)
24 | ACACTGCCTAACTGTTCACCTAACTGGGTTCAACTGTACTCGGAGTCACCTAGTGCAG | 10000 fluorescence intensity (a.u.)
25 | ATTGAGATAGAGGGAGTGGTTGGGATGGTGAAGTTGCTATCGGAGTCACCTAGTGCAG | 9450 fluorescence intensity (a.u.)
26 | CAGTTTCATCTTGCTTCGGAGCTGCACGCATCAGCCATCCCGGAGTCACCTAGTGCAG | 8390 fluorescence intensity (a.u.)
27 | CCAGTAGTGATCAACATGTACACCTCATACCATGTCCTTTCGGAGTCACCTAGTGCAG | 8200 fluorescence intensity (a.u.)

Row | Sequence | binding signal
28 | TTCACCGACCACGCCCACCGCGACCCCTGCGAATCTACCGCGGAGTCACCTAGTGCAG | 12400 fluorescence intensity (a.u.)
29 | TTTTGTGCATGTGGCTTGTTCTTTTTGGTTGGATATTTGCCGGAGTCACCTAGTGCAG | 8350 fluorescence intensity (a.u.)
30 | TTGTCCATTCTTCTTTGCCTCCTATCCACAACCCTCATTTCGGAGTCACCTAGTGCAG | 10000 fluorescence intensity (a.u.)
31 | TTCATTTTCAATTCCCGTCCTCATTCTTCTTATGATATTTCGGAGTCACCTAGTGCAG | 8930 fluorescence intensity (a.u.)
32 | CCCTAGAGCTGCTGACTGACAAAACTCTCTGCATCACCAACGGAGTCACCTAGTGCAG | 9540 fluorescence intensity (a.u.)
33 | GCCGTGATCATCATACACAGCATCTCCATCTCTGCAGGGACGGAGTCACCTAGTGCAG | 8820 fluorescence intensity (a.u.)
34 | AATGCTGCAATTTCTCGTTGACTAGACTTCACATGCAGCTCGGAGTCACCTAGTGCAG | 9720 fluorescence intensity (a.u.)
35 | CCTAGATTGCGCCGCACCACGCCACCACGTACGCACGCGTCGGAGTCACCTAGTGCAG | 8380 fluorescence intensity (a.u.)
36 | ACTAGACGCATCACCTCGTTGCCCCGGTCCTCAAGTACCTCGGAGTCACCTAGTGCAG | 9180 fluorescence intensity (a.u.)
37 | TTGGTGGGTGCGTAAGTATGGGATTACGAGTATAGTAGTGCGGAGTCACCTAGTGCAG | 8180 fluorescence intensity (a.u.)
38 | GTGATTTGATCTCGCTGCTGATATTGCTCCCTCATCCCAACGGAGTCACCTAGTGCAG | 8760 fluorescence intensity (a.u.)
39 | CATCCTCATCATGAACTACAGCTTTATTACATAGTAACCGCGGAGTCACCTAGTGCAG | 8370 fluorescence intensity (a.u.)
40 | ATTAGTGCCCGAACACCCCATGCGACGCCCTATATAATACCGGAGTCACCTAGTGCAG | 8640 fluorescence intensity (a.u.)
41 | TATTGTAAATCGTTTGACTTTTTTCTTGATCAAAATTCTTCGGAGTCACCTAGTGCAG | 8070 fluorescence intensity (a.u.)
42 | ATTAATACCTGACCCTACCTATCATATACATATTGCGTCTCGGAGTCACCTAGTGCAG | 10800 fluorescence intensity (a.u.)
43 | CACTACTATCTGCCTCACCGTTAACCCTACCGAATAAATTCGGAGTCACCTAGTGCAG | 8880 fluorescence intensity (a.u.)
44 | TCTTGATTTTTGCATTAGTAGTAGTTGCGTCTTATATTTTCGGAGTCACCTAGTGCAG | 12100 fluorescence intensity (a.u.)
45 | TCACCTTATCGTCACGCTCTCCCTATTTTTTTTCCCCTTTCGGAGTCACCTAGTGCAG | 8490 fluorescence intensity (a.u.)
46 | CCCTTTTTTTTTCATTGTTACAACTTTAACACTATAAGTTCGGAGTCACCTAGTGCAG | 9860 fluorescence intensity (a.u.)
47 | GATGGTTTAGAATTCTCTTTAGGCTGCACCCAAAATTTCTCGGAGTCACCTAGTGCAG | 11100 fluorescence intensity (a.u.)
48 | ATTTCCTTAAAATCTTTCTCTTTTGCCCAATTTGATTTCCCGGAGTCACCTAGTGCAG | 8420 fluorescence intensity (a.u.)
49 | ACTCGCTTGTGTCTGCCTCTCGGCAATGTATGATTTGATCCGGAGTCACCTAGTGCAG | 9260 fluorescence intensity (a.u.)
50 | AGGCCTCCATAAAAACTCCATCTCGATCGTCTCATCTCATCGGAGTCACCTAGTGCAG | 8440 fluorescence intensity (a.u.)
51 | TCGTGTTGGTGGTGGTGGTGGTGTGCGGGCGGGCGGGCGCCGGAGTCACCTAGTGCAG | 33300 fluorescence intensity (a.u.)
52 | TTGCTGGTTAGTGAATTGTAGTTTGCACATTGAAATGATTCGGAGTCACCTAGTGCAG | 8790 fluorescence intensity (a.u.)
53 | TGGTTCATCTGTTGATCACTTCTTTGTTTCCCGCGTTTTGCGGAGTCACCTAGTGCAG | 13300 fluorescence intensity (a.u.)
54 | TTAAAACTGAAATTATCGTATGTGCCTTGTCGCCGTGATTCGGAGTCACCTAGTGCAG | 8090 fluorescence intensity (a.u.)

Reformatted: results already given
Row	Sequence	binding signal
35	CCTAGATTGCGCCGCACCACGCCACCACGTACGCACGCGTCGGAGTCACCTAGTGCAG	8380 fluorescence intensity (a.u.)
36	ACTAGACGCATCACCTCGTTGCCCCGGTCCTCAAGTACCTCGGAGTCACCTAGTGCAG	9180 fluorescence intensity (a.u.)
